According to PubChem BioAssay (NCATS):
The inconclusive results got no clear call from the source; some entries with a clear call stand among them for comparison. Where the call is inconclusive, the potency comes from a doubtful curve fit. Active and inactive are the calls of the source. Calls come from the whole dose curve; as a rule, active = well fitted cell-killing curve with a large enough effect; inconclusive = small, poorly fitted or top-dose-only effect, or effect the other way; inactive = no such curve, though single readings can be large or run the other way.

Tests used:
[1] = Quantitative High-Throughput drug screen in 47 multiple myeloma cell lines against the NCATS MIPE library collection: LP1_DSMZ cell viability assay (AID 1918982); note: nearly all actives have a fitted effect of over 35% in size
Method in brief: (§1)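 Readout: median RLU from CellTiter-Glo after 5 min at room temperature. Preceding step was 48 h drug treatment of 500 cells/well at 37 °C, 5% CO2, with DMSO-only and media-only control wells.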

[2] = Quantitative High-Throughput drug screen in 47 multiple myeloma cell lines against the NCATS MIPE library collection: KMS28PE_JCRB cell viability assay (AID 1918983); note: nearly all actives have a fitted effect of over 35% in size
Method in brief: as §1

[3] = Quantitative High-Throughput drug screen in 47 multiple myeloma cell lines against the NCATS MIPE library collection: L363_DSMZ cell viability assay (AID 1918984); settings: L363 myeloma viability, CellTiter-Glo ATP luminescence, 48 h; viability (% of control): at 45.8 µM (top of the series); note: nearly all actives have a fitted effect of over 40% in size
Method in brief: as §1

[4] = Quantitative High-Throughput drug screen in 47 multiple myeloma cell lines against the NCATS MIPE library collection: KMS34_JCRB cell viability assay (AID 1918985); note: nearly all actives have a fitted effect of over 40% in size
Method in brief: as §1

[5] = Quantitative High-Throughput drug screen in 47 multiple myeloma cell lines against the NCATS MIPE library collection: OCIMY7_PLB cell viability assay (AID 1918987); settings: OCI-MY7 myeloma viability, CellTiter-Glo ATP, 48 h; viability (% of DMSO): at 45.8 µM (top of the series); note: nearly all actives have a fitted effect of over 65% in size
Method in brief: as §1

[6] = Quantitative High-Throughput drug screen in 47 multiple myeloma cell lines against the NCATS MIPE library collection: OCIMY5_PLB cell viability assay (AID 1918988); note: nearly all actives have a fitted effect of over 65% in size
Method in brief: as §1

[7] = Quantitative High-Throughput drug screen in 47 multiple myeloma cell lines against the NCATS MIPE library collection: OPM1_PLB cell viability assay (AID 1918989); note: nearly all actives have a fitted effect of over 40% in size;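 for viability (% of control): 100% = DMSO-only wells and 0% = media-only wells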
Method in brief: as §1

[8] = Quantitative High-Throughput drug screen in 47 multiple myeloma cell lines against the NCATS MIPE library collection: U266_ATCC cell viability assay (AID 1919864); settings: U266 myeloma viability, CellTiter-Glo ATP luminescence, 48 h; viability (% of DMSO control): at 45.8 µM (top of the series); note: nearly all actives have a fitted effect of over 35% in size;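 for viability (% of DMSO control): 0% = media-only wells without cells and 100% = DMSO-only wells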
Method in brief: as §1

[9] = Quantitative High-Throughput drug screen in 47 multiple myeloma cell lines against the NCATS MIPE library collection: XG6_PLB cell viability assay (AID 1919865); settings: XG6 myeloma viability, CellTiter-Glo ATP luminescence, 48 h; viability (% of control): at 45.8 µM (top of the series); note: nearly all actives have a fitted effect of over 40% in size;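 for viability (% of control): 100% = DMSO-only wells and 0% = media-only wells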
Method in brief: as §1

[10] = Quantitative High-Throughput drug screen in 47 multiple myeloma cell lines against the NCATS MIPE library collection: XG1_PLB cell viability assay (AID 1919866); settings: CellTiter-Glo ATP, 48 h; viability: at 45.8 µM (top of the series); note: nearly all actives have a fitted effect of over 35% in size
Method in brief: as §1

[11] = Quantitative High-Throughput drug screen in 47 multiple myeloma cell lines against the NCATS MIPE library collection: VP6_DJ cell viability assay (AID 1919867); settings: ATP luminescence, 48 h; viability (% of DMSO): at 45.8 µM (top of the series); note: nearly all actives have a fitted effect of over 40% in size
Method in brief: as §1

[12] = Quantitative High-Throughput drug screen in 47 multiple myeloma cell lines against the NCATS MIPE library collection: UTMC2_PLB cell viability assay (AID 1919868); settings: CellTiter-Glo ATP luminescence, 48 h; viability (% of DMSO control): at 45.8 µM (top of the series); note: nearly all actives have a fitted effect of over 55% in size;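 for viability (% of DMSO control): 100% = DMSO-only wells and 0% = media-only wells without cells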
Method in brief: as §1

[13] = Quantitative High-Throughput drug screen in 47 multiple myeloma cell lines against the NCATS MIPE library collection: KMS11_JCRBsus cell viability assay (AID 1919873); note: nearly all actives have a fitted effect of over 50% in size;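 for viability (% of control): 100% = DMSO-only wells and 0% = media-only wells without cells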
Method in brief: as §1

[14] = Quantitative High-Throughput drug screen in 47 multiple myeloma cell lines against the NCATS MIPE library collection: KMS28BM_JCRB cell viability assay (AID 1919874); note: nearly all actives have a fitted effect of over 35% in size
Method in brief: as §1

[15] = Quantitative High-Throughput drug screen in 47 multiple myeloma cell lines against the NCATS MIPE library collection: PE2_PLB cell viability assay (AID 1919869); settings: PE2_PLB myeloma cells viability, ATP luminescence, 48 h; viability (% of control): at 45.8 µM (top of the series); note: nearly all actives have a fitted effect of over 35% in size
Method in brief: as §1

[16] = Quantitative High-Throughput drug screen in 47 multiple myeloma cell lines against the NCATS MIPE library collection: PCM6_Riken cell viability assay (AID 1919870); note: nearly all actives have a fitted effect of over 30% in size;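 for viability (% of control): 100% = DMSO-only wells and 0% = media-only wells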
Method in brief: as §1

[17] = Quantitative High-Throughput drug screen in 47 multiple myeloma cell lines against the NCATS MIPE library collection: RPMI8226_ATCC cell viability assay (AID 1919871); settings: RPMI8226 myeloma viability, CellTiter-Glo ATP luminescence, 48 h; viability (% of control): at 45.8 µM (top of the series); note: nearly all actives have a fitted effect of over 30% in size
Method in brief: as §1

[18] = Quantitative High-Throughput drug screen in 47 multiple myeloma cell lines against the NCATS MIPE library collection: SKMM1_PLB cell viability assay (AID 1919863); settings: SKMM1 myeloma viability, CellTiter-Glo ATP, 48 h; viability: stronger effect = lower value; note: nearly all actives have a fitted effect of over 35% in size
Method in brief: as §1
Potency is the fitted concentration of half-maximal effect.

C[C@]12Cc3cn[nH]c3C[C@@H]1CC[C@@H]1[C@H]2CC[C@@]2(C)[C@H]1CC[C@]2(C)O
inactive: Potency [4] | Potency [5] | Potency [8] | Potency [9] | Potency [10] | Potency [14]
inconclusive: Potency [1] 26400 nM [cytotoxic, single point] | Potency [2] 118 nM [cytotoxic, full curve, poor fit] | Potency [3] 5.9 nM [cytotoxic, full curve, poor fit] | Potency [7] 526 nM [cytotoxic, partial curve, poor fit] | Potency [11] 4.7 nM [rising, full curve, poor fit] | Potency [12] 1050 nM [cytotoxic, full curve, poor fit] | Potency [13] 469 nM [cytotoxic, full curve, poor fit]
active: Potency [6] 13200 nM

CN(C)[C@@H]1C(=O)C(C(N)=O)=C(O)[C@@]2(O)C(=O)C3=C(O)c4c(O)cccc4[C@@](C)(O)[C@H]3[C@H](O)[C@@H]12
inactive: Potency [1] | Potency [7] | Potency [13] | Potency [14]
active: Potency [4] 3720 nM | Potency [8] 18700 nM | Potency [10] 16600 nM
inconclusive: Potency [2] 20900 nM [cytotoxic, partial curve, poor fit] | Potency [3] 935 nM [cytotoxic, full curve, poor fit] | Potency [5] 8330 nM [cytotoxic, full curve] | Potency [6] 2640 nM [cytotoxic, full curve, poor fit] | Potency [12] 4690 nM [cytotoxic, partial curve, poor fit] | Potency [15] 18700 nM [cytotoxic, partial curve, poor fit]

C#CCN(C)[C@H](C)Cc1ccccc1
inconclusive: Potency [2] 23500 nM [cytotoxic, partial curve] | Potency [5] 52.6 nM [cytotoxic, full curve, poor fit] | Potency [6] 5900 nM [cytotoxic, partial curve, poor fit] | Potency [9] 23.5 nM [rising, full curve] | Potency [12] 23500 nM [cytotoxic, partial curve, poor fit] | Potency [16] 13.2 nM [rising, full curve] | viability (% of control) [17] 66.5% [cytotoxic] | Potency [13] 29.6 nM [rising, full curve] | Potency [14] 33.2 nM [rising, full curve, poor fit]
inactive: Potency [1] | Potency [3] | Potency [4] | Potency [10]

O=C1CCC[C@@H]2[C@H]3CCCN4CCC[C@@H](CN12)[C@@H]34
inconclusive: Potency [1] 23500 nM [rising, single point] | Potency [2] 1.7 nM [rising, full curve] | Potency [3] 26.4 nM [rising, full curve, poor fit] | Potency [4] 2.3 nM [rising, full curve, poor fit] | Potency [5] 332 nM [cytotoxic, full curve, poor fit] | Potency [6] 9350 nM [rising, partial curve] | Potency [18] 2.1 nM [rising, full curve, poor fit] | Potency [8] 3.3 nM [rising, full curve, poor fit] | Potency [11] 1050 nM [cytotoxic, full curve, poor fit]
inactive: Potency [9] | Potency [10] | Potency [12] | Potency [16]

CNC(=O)c1ccc(N2C(=S)N(c3ccc(C#N)c(C(F)(F)F)c3)C(=O)C23CCC3)cc1F
inconclusive: Potency [1] 18700 nM [cytotoxic, single point] | Potency [3] 33.2 nM [rising, full curve, poor fit] | Potency [4] 14.8 nM [rising, full curve, poor fit] | Potency [7] 37200 nM [cytotoxic, single point] | Potency [18] 935 nM [rising, full curve, poor fit] | Potency [12] 23500 nM [cytotoxic, partial curve, poor fit]
inactive: Potency [2] | Potency [13] | Potency [14]

CC(C)CC(N(C)C)C1(c2ccc(Cl)cc2)CCC1 (configuration not stated)
active: Potency [13] 18700 nM
inactive: Potency [1] | Potency [3] | Potency [4] | Potency [7]
inconclusive: Potency [2] 590 nM [cytotoxic, full curve, poor fit] | Potency [5] 11800 nM [cytotoxic, partial curve, poor fit] | Potency [6] 4180 nM [cytotoxic, partial curve, poor fit] | Potency [18] 16600 nM [cytotoxic, partial curve, poor fit] | Potency [10] 5900 nM [cytotoxic, partial curve, poor fit] | Potency [11] 1870 nM [cytotoxic, full curve, poor fit] | Potency [12] 469 nM [cytotoxic, full curve, poor fit] | Potency [16] 14800 nM [cytotoxic, partial curve, poor fit] | Potency [17] 833 nM [cytotoxic, full curve, poor fit] | Potency [14] 1320 nM [cytotoxic, partial curve, poor fit]
